Drawing on publication PMC9090556, this text covers binding for 5 molecules.

Test [1] concerns the target OsJAZ11 (pBD-OsJAZ11, yeast two-hybrid fusion) (rice (Oryza sativa)). Kind of test: two-hybrid; Matchmaker Gold system, Y2H Gold yeast strain; BD (pGBKT7) bait and AD (pGADT7) prey co-transformed; growth on SD/-Leu/-Trp/-His, SD/-Leu/-Trp/-His/-Ade and SD/-Leu/-Trp/-His/-Ade/X-Gal/Aureobasidin A.
Test [2] concerns the target OsJAZ11-GST (rice (Oryza sativa)). As to the kind of experiment: pull-down; in vitro GST pull-down; OsJAZ11-GST as bait, 6XHis-tagged partner as prey; recombinant proteins from E. coli; both purified.

Results are given in words; binding and its absence hold for the method and conditions named. Binding calls can cover weak binding; strength is not graded here. Where a sequence is shown, tags or fusion partners need not be part of it.

B1: OsJAZ8 (yeast two-hybrid fusion) (protein, UniProt Q69P94 1-232)
chain: MAGRATATATAAGKDRSSFAVTCSLLSQFLKEKKGGGGGLQGLGLGLRPAPAAPPAAGAGGAFRPPPTTMNLLSGLDAPAVEVEPNTAETAADELPLIKAPADQQSDESASEAAGEKAQQLTIFYGGKVVVFENFPSTKVKDLLQIVSTGDGVDKNTGTAATQSLPRPAHNSLPDLPIARRNSLHRFLEKRKGRMNANAPYQANCTAAPSKQANGDKSWLGFGQEMTIKQEI
On to B1, for which, in test [1], the binding entry is on record as “binds”.

B2: OsJAZ6 (yeast two-hybrid fusion) (protein, UniProt Q84R94 1-228)
chain: MASAKSGERGSSSFAMACSLLSRYVRQNGAAAGELGLGIRGEADANKGKETMELFPQNSGFGSEAAAVKETPDAREQEKRQLTIFYGGKVLVFDDFPAEKAKDLMQMASKSSSTAQNCVLLPSSATATVADNTKVSAVPAPASALPVAQANAPKPVRPNAADLPQARKASLHRFLEKRKDRLQAKAPYQGSPSDASPVKKELQESQPWLGLGPQVAAPDLSLRQESSQ
With B2, the binding entry in test [1] is “binds”.

B3: OsJAZ4 (yeast two-hybrid fusion) (protein, UniProt Q6ES51 1-416)
chain: MERDFLGAIGKDEEQRRHAEERKESDYFGAGGGAAAAAMDWSFASRAALMSFRSSSSAAAAAAREETRELAFPHFSALDGAKMQQASHVLARQKSFGAESHGIPQYAAAAAVHGAHRGQPPHVLNGARVIPASSPFNPNNPMFRVQSSPNLPNAVGAGGGAFKQPPFAMGNAVAGSTVGVYGTRDMPKAKAAQLTIFYAGSVNVFNNVSPEKAQELMFLASRGSLPSAPTTVARMPEAHVFPPAKVTVPEVSPTKPMMLQKPQLVSSPVPAISKPISVVSQATSLPRSASSSNVDSNVTKSSGPLVVPPTSLPPPAQPETLATTTAAAIMPRAVPQARKASLARFLEKRKERVTTVAPYPLAKSPLESSDTMGSANDNKSSCTDIALSSNRDESLSLGQPRTISFCEESPSTKLQI
Consider B3, for which the binding result in test [1] was “binds”.

B4: OsJAZ1 (yeast two-hybrid fusion) (protein, UniProt Q7XPM8 1-216)
chain: MDLLEKKNIKKGGEVEEEVARKGEERKEEEVVVEEKSHQQQQQQGEEELVGLSLAGGRPKVFPMSSPPPNPSQLTIFYGGSVCVYDSVPPEKAQAIMLIAAAAAAAASATKSNAAIAVKPPVMPAANATQAAVSPVLTRSLSLQSTSVATGQPQVAADPSSICKLQADLPIARRHSLQRFLEKRRDRLVSKAPYPTKSSEGMEASGMEVTAEGKAQ
Consider B4, for which, in test [1], the binding entry was “binds”.

B5: OsJAZ1-6XHIS (protein, UniProt Q7XPM8 1-216)
chain: B4 chain
B5: the binding result in test [2] is reported as “binds”.
